The other results are listed elsewhere or left out.
Assays:
Test in all cases: log2 fold change, soluble protein after heating vs DMSO (PISA); higher = thermal stabilisation; K562 lysate, 10 uM; active = over 0.2 and 3.5 SD of the protein, either way, in both replicates (recomputed)
erlotinib = compound: C#Cc1cccc(Nc2ncnc3cc(OCCOC)c(OCCOC)cc23)c1 [erlotinib]
Summary of the method: (§1)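 Values give the log-two fold change in thermal stability against solvent controls, from duplicates. Crude K562 extract at 1 mg/mL protein, made by dounce homogenisation in PBS pH 7.4 with 1 mM MgCl2, was treated with 10 μM compound for 30 min. After 3 min heating across 48°C-58°C, aliquots were pooled, adjusted to 0.5% NP-40 at 4°C and centrifuged at 21,000xg for 90 min. The supernatant was measured by TMTpro 16plex LC-MS/MS with channel sums equalised.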

Amino acid sequences for entries named in this document (tags omitted). A change or cut given only in a name is not applied to a line headed by its entry.
UniProt Q53HC5: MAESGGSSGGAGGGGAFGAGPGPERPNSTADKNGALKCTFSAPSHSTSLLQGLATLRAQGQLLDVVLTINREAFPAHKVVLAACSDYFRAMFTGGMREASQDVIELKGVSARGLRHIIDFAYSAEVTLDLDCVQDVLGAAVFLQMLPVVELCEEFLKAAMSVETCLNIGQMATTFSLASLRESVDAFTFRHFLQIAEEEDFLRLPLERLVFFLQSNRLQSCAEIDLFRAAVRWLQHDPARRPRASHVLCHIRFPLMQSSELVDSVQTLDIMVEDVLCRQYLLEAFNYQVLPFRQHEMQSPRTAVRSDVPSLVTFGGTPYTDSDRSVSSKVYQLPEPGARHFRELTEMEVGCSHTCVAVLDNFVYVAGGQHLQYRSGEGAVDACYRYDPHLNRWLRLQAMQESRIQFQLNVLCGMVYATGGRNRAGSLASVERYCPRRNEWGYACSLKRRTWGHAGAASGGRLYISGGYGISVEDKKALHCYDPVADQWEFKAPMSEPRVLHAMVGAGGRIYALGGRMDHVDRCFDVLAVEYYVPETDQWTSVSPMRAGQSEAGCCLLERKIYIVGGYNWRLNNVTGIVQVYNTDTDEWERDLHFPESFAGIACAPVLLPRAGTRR
UniProt Q6TDP4, whole entry, looked up: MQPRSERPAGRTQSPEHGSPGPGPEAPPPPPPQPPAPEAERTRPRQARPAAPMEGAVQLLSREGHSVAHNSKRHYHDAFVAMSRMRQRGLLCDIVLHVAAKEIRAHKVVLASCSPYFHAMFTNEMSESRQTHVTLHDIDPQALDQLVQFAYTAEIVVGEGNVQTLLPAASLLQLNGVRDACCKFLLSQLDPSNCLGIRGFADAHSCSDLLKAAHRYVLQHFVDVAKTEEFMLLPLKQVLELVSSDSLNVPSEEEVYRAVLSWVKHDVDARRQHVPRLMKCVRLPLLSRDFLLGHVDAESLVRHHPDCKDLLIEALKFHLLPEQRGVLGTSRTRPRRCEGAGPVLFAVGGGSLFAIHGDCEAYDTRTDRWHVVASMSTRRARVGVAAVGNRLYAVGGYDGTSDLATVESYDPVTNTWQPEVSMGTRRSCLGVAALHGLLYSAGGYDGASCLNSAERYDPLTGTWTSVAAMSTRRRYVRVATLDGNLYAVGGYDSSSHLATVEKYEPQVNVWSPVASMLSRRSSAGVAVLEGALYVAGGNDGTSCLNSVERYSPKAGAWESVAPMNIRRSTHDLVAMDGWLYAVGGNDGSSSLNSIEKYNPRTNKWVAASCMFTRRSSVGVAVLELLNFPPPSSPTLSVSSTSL
UniProt Q8IXV7: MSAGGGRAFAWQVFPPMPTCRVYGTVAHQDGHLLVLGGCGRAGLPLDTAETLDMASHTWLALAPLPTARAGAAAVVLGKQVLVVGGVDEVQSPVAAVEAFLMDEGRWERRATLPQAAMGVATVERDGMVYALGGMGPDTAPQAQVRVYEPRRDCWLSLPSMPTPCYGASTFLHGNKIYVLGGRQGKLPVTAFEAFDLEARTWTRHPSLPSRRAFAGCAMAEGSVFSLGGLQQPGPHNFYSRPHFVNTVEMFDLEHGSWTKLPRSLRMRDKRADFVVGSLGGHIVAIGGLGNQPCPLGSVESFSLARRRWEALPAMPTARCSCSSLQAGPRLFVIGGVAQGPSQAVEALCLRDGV
UniProt O15131, whole entry, looked up: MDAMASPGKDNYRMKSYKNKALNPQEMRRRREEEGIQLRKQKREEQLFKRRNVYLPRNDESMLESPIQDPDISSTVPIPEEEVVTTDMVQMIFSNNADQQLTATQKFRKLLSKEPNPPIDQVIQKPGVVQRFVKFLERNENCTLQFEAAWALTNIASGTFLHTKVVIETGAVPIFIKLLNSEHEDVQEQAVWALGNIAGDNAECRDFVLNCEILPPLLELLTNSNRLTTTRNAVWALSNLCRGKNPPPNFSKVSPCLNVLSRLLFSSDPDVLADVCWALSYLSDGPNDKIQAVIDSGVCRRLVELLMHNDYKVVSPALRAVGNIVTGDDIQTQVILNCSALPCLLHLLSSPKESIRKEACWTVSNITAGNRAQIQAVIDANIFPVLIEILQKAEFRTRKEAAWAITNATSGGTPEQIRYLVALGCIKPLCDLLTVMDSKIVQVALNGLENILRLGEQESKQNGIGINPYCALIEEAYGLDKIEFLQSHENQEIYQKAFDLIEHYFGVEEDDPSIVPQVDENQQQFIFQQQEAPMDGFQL
UniProt Q9P2G9: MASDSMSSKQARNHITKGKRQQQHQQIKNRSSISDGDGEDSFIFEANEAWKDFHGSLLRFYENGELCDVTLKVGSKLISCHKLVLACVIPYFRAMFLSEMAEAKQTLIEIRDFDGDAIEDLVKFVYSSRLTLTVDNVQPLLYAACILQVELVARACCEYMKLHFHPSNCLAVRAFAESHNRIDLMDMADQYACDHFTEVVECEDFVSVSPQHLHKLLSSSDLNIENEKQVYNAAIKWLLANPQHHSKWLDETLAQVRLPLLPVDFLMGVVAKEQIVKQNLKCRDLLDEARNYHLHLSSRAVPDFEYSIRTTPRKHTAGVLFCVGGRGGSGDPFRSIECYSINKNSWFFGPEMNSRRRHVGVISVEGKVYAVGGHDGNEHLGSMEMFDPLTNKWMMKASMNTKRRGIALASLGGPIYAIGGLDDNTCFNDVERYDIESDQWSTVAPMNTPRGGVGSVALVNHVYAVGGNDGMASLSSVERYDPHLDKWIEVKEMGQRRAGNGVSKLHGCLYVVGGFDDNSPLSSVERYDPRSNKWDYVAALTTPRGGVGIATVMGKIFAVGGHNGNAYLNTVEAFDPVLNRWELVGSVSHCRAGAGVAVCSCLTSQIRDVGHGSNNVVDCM
UniProt A6NCN2: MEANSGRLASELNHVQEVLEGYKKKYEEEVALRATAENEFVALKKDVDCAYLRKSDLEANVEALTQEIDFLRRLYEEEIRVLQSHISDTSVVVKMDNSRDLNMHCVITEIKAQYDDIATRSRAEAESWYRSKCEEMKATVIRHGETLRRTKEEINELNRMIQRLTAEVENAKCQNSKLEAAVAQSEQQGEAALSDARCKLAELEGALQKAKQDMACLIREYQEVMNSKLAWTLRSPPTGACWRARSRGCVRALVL
UniProt Q9P2K6: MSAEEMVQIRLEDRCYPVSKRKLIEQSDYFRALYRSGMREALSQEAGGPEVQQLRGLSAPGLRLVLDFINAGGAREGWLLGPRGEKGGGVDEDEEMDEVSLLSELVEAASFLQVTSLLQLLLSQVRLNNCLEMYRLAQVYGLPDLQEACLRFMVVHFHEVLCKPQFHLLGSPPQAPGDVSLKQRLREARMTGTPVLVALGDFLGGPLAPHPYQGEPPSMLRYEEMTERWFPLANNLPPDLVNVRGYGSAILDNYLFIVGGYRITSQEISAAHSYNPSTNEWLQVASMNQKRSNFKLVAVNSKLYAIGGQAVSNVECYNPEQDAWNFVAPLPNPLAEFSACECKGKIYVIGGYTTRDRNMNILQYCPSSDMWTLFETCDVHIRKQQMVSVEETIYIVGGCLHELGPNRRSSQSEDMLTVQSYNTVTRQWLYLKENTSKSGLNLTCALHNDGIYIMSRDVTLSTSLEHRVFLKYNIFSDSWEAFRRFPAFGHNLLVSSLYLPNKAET
UniProt P55268: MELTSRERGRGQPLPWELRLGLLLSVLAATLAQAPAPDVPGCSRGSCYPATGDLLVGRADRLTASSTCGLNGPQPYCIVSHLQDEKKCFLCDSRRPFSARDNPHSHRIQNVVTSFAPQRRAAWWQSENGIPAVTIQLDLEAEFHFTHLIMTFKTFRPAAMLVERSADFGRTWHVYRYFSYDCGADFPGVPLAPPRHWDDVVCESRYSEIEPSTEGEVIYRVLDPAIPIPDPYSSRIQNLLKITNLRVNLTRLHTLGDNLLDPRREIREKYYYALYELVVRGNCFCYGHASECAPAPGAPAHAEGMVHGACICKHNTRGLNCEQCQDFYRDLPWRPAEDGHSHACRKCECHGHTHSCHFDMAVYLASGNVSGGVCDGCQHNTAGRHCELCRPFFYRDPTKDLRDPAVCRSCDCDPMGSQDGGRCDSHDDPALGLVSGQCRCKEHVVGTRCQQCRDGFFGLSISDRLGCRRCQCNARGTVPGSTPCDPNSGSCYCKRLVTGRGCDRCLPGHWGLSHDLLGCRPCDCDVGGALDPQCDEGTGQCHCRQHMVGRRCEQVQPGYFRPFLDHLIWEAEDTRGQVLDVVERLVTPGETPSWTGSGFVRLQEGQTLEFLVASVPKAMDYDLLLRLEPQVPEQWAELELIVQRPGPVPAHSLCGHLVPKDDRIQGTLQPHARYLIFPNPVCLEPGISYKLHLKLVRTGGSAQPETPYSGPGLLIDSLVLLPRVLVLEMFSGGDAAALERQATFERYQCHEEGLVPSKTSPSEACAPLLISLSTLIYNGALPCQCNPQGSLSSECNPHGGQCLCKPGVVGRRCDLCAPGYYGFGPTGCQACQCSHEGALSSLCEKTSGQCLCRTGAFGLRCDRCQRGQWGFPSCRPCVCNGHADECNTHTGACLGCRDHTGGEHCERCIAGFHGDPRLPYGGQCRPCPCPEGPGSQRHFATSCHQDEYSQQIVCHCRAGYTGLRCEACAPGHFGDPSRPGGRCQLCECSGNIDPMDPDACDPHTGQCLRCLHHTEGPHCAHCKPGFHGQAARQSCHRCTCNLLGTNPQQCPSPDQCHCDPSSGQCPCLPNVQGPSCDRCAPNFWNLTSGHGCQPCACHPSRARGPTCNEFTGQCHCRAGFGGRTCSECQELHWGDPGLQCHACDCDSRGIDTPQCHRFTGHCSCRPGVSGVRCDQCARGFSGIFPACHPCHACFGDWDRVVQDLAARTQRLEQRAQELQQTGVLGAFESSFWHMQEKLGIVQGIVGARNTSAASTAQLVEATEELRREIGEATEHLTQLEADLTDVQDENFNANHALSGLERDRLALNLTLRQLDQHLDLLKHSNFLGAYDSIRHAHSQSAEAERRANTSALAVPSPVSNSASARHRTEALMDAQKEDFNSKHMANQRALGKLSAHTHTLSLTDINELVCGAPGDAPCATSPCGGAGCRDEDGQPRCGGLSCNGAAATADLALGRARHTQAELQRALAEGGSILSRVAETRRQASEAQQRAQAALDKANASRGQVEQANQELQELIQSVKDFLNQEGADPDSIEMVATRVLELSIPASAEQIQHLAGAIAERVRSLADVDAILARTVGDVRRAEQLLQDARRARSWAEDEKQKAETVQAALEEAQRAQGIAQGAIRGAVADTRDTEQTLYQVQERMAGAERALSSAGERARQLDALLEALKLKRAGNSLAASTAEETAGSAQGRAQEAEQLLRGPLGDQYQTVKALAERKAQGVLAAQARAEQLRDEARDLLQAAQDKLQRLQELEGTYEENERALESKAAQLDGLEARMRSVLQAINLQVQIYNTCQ
UniProt Q9Y2M5: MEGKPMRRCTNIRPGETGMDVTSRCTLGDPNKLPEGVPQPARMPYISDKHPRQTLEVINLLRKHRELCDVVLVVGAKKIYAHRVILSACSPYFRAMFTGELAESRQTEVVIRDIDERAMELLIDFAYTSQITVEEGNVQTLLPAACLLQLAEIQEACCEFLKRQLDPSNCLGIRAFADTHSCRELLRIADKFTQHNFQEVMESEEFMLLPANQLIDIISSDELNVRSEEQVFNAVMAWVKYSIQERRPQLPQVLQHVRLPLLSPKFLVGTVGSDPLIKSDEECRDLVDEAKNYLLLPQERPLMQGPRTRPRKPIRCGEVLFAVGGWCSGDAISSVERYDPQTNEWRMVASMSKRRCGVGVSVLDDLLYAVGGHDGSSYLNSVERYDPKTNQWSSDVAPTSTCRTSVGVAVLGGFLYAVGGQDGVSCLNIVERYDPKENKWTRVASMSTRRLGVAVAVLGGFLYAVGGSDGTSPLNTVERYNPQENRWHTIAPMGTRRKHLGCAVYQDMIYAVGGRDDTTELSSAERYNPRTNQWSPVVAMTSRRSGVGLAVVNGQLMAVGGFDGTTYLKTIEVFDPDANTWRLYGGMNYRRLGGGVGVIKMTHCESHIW
UniProt Q8IXQ5, whole entry, looked up: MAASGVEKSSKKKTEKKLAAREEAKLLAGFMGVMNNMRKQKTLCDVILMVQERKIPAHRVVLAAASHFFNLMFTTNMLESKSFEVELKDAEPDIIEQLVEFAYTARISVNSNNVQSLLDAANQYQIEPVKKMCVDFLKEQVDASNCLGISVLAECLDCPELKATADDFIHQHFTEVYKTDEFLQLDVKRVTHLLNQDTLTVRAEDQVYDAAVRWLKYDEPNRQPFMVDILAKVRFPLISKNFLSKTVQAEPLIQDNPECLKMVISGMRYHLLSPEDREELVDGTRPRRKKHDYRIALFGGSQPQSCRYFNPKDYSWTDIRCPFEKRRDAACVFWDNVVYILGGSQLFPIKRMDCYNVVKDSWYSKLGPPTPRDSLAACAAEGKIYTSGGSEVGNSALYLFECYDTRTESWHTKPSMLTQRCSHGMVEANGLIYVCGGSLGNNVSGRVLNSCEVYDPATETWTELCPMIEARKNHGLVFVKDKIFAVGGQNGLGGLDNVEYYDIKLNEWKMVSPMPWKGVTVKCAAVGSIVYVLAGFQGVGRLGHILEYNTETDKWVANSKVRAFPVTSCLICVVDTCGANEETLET

[1] = compound: C1=CC(=CC=C1C2=NC3=C(N2)C=C(C=C3)C(=O)N)OC4=CC=C(C=C4)Cl
Summary of the method: as §1

[2] = compound: C1CCN(C1)C(=O)NC2=CC=CC(=C2)NC3=NC=C(C(=N3)NCCC4=CN=CN4)Br
Summary of the method: as §1

[3] = compound: C1CN(CCC1(CC2=CC=C(C=C2)Cl)N)C3=NC=NC4=C3C=CN4
Summary of the method: as §1

[4] = compound: C/C(=N\NC(=O)C1=CC(=CC=C1)S(=O)(=O)N2CCOCC2)/C3=C(C=CC(=C3)Cl)O
Summary of the method: as §1

[5] = compound: C1=CC2=C(C=CC(=C2)/C=C\3/C(=O)NC(=NCC4=CC=CS4)S3)N=C1
Summary of the method: as §1

[6] = compound: C1=CC=C2C(=C1)C3=NNC4=CC=CC(=C43)C2=O
Summary of the method: as §1

[7] = compound: C1=CC2=NC=CN=C2C=C1/C=C/3\C(=O)NC(=O)S3
Summary of the method: as §1

[8] = compound: C1=CC=C(C=C1)C2=NC(=C(N2)C3=CC=NC=C3)C4=CC(=C(C=C4)Cl)O
Summary of the method: as §1

IRAK-1-4 Inhibitor I = compound: C1COCCN1CCN2C3=CC=CC=C3N=C2NC(=O)C4=CC(=CC=C4)[N+](=O)[O-] [IRAK-1-4 Inhibitor I]
Summary of the method: as §1

Measured: log2 fold change

KMT2B (UniProt Q9UMN6)
inactive: erlotinib -0.494 | [1] -0.226 | [2] -0.028 | [3] -0.015

KLHDC2 (UniProt Q9Y2U9)
inactive: erlotinib -0.087 | [4] 0.1 | [1] 0.024 | [5] 0.008 | [6] 0.055

KIDINS220 isoform 2 (UniProt Q9ULH0)
inactive: [4] -0.103 | [5] 0.087 | [6] -0.345

KLHL26 (UniProt Q53HC5)
inactive: erlotinib 0.094 | [1] 0.122

KLHL17 (UniProt Q6TDP4)
inactive: erlotinib 0.052 | [1] -0.071 | [7] -0.068 | [8] 0.076 | [2] -0.047 | [3] 0.098 | IRAK-1-4 Inhibitor I -0.135

KIF21B (UniProt O75037)
inactive: [4] 0 | [5] -0.065 | [7] -0.022 | [8] 0 | [6] -0.215 | [2] -0.045 | [3] -0.003 | IRAK-1-4 Inhibitor I 0.112

KLF3 (UniProt P57682)
inactive: [8] -0.132 | [2] 0.03 | [3] -0.064 | IRAK-1-4 Inhibitor I 0.01

KLHDC8B (UniProt Q8IXV7)
inactive: erlotinib -0.024 | [1] -0.093 | [8] 0.019 | [2] 0.061 | [3] 0.031 | IRAK-1-4 Inhibitor I -0.144

KPNB1 (UniProt J3QKQ5)
inactive: [8] -0.025 | IRAK-1-4 Inhibitor I -0.144

L3MBTL4 (UniProt Q8NA19)
inactive: [4] -0.102 | [5] 0.004 | [7] -0.074 | [8] 0.063 | [6] -0.003 | [2] -0.063 | [3] 0.046 | IRAK-1-4 Inhibitor I -0.117

LANCL3 (UniProt Q6ZV70)
inactive: [4] 0.078 | [5] 0.02 | [7] 0.011 | [6] 0.135 | [2] -0.031 | [3] 0.077

KDM5A (UniProt P29375)
inactive: [8] 0 | IRAK-1-4 Inhibitor I -0.098

2 consecutive entries already listed:
KPNB1 (UniProt J3QKQ5)
inactive: [8] -0.025 | IRAK-1-4 Inhibitor I -0.144

L3MBTL4 (UniProt Q8NA19)
inactive: [4] -0.102 | [5] 0.004 | [7] -0.074 | [8] 0.063 | [6] -0.003 | [2] -0.063 | [3] 0.046 | IRAK-1-4 Inhibitor I -0.117

Continuation:

KIF1B isoform 3 (UniProt O60333)
inactive: erlotinib 0.008 | [1] 0.059 | [7] 0.006 | [8] -0.128 | [2] -0.006 | [3] 0.153 | IRAK-1-4 Inhibitor I 0.215

KPNA5 (UniProt O15131)
inactive: erlotinib -0.071 | [1] 0.079

L3MBTL2 (UniProt Q969R5)
inactive: [2] -0.109 | [3] 0.081

KLHL8 (UniProt Q9P2G9)
inactive: [8] 0.062 | IRAK-1-4 Inhibitor I 0.045

LAMA5 (UniProt O15230)
inactive: erlotinib -0.139 | [1] 0.248 | [7] -0.042 | [8] 0.001 | [2] 0.129 | [3] -0.1 | IRAK-1-4 Inhibitor I -0.044

KRT87P (UniProt A6NCN2)
inactive: erlotinib 1.92 | [1] -0.061

LACRT (UniProt Q9GZZ8)
inactive: erlotinib 0.017 | [1] -0.038

LAPTM4B (UniProt Q86VI4)
inactive: erlotinib -0.048 | [1] 0.029 | [7] 0.119 | [8] -0.107 | IRAK-1-4 Inhibitor I -0.052

KIAA0930 isoform 2 (UniProt Q6ICG6)
inactive: [4] -0.004 | [5] -0.067 | [7] -0.229 | [8] -0.258 | [6] 0.203 | [2] 0.099 | [3] -0.01 | IRAK-1-4 Inhibitor I -0.063

KDM4C (UniProt Q9H3R0)
inactive: [7] -0.16 | [8] 0.204 | IRAK-1-4 Inhibitor I 0.27

KMT2E (UniProt Q8IZD2)
inactive: erlotinib 0.03 | [4] 0.181 | [1] 0.18 | [5] -0.031 | [8] 0.05 | [6] -0.354 | [2] -0.093 | [3] 0.034 | IRAK-1-4 Inhibitor I 0.184

KLC1 isoform 10 (UniProt Q07866)
inactive: erlotinib 0.071 | [1] -0.165 | [7] 0.122 | [2] 0.241 | [3] -0.337

KIF20A (UniProt O95235)
inactive: [4] 0.036 | [5] -0.064 | [7] 0.093 | [8] 0 | [6] -0.011 | [2] 0.002 | [3] 0.167 | IRAK-1-4 Inhibitor I -0.004

KLF1 (UniProt Q13351)
inactive: erlotinib -0.015 | [1] 0.009 | [7] 0.07 | [8] -0.253 | IRAK-1-4 Inhibitor I 0.012

KIAA0586 isoform 3 (UniProt Q9BVV6)
inactive: erlotinib 0.101 | [1] 0.258 | [8] 0.027 | IRAK-1-4 Inhibitor I -0.021

KRAS isoform 2 (UniProt P01116)
inactive: erlotinib -0.038 | [1] 0.087 | [8] -0.071 | [2] -0.044 | [3] 0.015 | IRAK-1-4 Inhibitor I 0.033

LAMP2 isoform 2 (UniProt P13473)
inactive: erlotinib -0.035 | [1] -0.01 | [7] -0.038 | [8] 0.036 | IRAK-1-4 Inhibitor I -0.076

KLC3 isoform 3 (UniProt Q6P597)
inactive: [7] 0.052 | [2] 0.114 | [3] 0.002

KIF18B (UniProt Q86Y91)
inactive: [2] -0.117 | [3] 0.033

KLHL42 (UniProt Q9P2K6)
inactive: erlotinib -0.055 | [1] -0.034 | [7] -0.11 | [8] -0.03 | IRAK-1-4 Inhibitor I 0.036

LAMB2 (UniProt P55268)
inactive: erlotinib 0.106 | [1] -0.378 | [2] 0.272 | [3] 0.07

KIAA1549 (UniProt Q9HCM3)
inactive: [7] -0.065 | [8] -0.03 | IRAK-1-4 Inhibitor I -0.001

KLHL20 (UniProt Q9Y2M5)
inactive: erlotinib 0.028 | [1] 0.007 | [7] 0.007 | [8] -0.024 | [2] -0.178 | [3] 0.013 | IRAK-1-4 Inhibitor I 0.01

KLHL7 isoform 3 (UniProt Q8IXQ5)
inactive: [4] -0.095 | [5] 0.006 | [8] 0.01 | [6] -0.035 | [2] 0.074 | [3] 0.034 | IRAK-1-4 Inhibitor I 0.04

LAPTM4A (UniProt Q15012)
inactive: [4] -0.386 | [5] 0.035 | [6] 0.036

Source: the supplement of paper PMC10849652
